Article PMC9838815
These are yes or no findings as the source states them, for the method shown.

Chains of the proteins cited; added tags and fusions are not shown. Residues count along the entry.
UniProt Q29443, residues 20-704: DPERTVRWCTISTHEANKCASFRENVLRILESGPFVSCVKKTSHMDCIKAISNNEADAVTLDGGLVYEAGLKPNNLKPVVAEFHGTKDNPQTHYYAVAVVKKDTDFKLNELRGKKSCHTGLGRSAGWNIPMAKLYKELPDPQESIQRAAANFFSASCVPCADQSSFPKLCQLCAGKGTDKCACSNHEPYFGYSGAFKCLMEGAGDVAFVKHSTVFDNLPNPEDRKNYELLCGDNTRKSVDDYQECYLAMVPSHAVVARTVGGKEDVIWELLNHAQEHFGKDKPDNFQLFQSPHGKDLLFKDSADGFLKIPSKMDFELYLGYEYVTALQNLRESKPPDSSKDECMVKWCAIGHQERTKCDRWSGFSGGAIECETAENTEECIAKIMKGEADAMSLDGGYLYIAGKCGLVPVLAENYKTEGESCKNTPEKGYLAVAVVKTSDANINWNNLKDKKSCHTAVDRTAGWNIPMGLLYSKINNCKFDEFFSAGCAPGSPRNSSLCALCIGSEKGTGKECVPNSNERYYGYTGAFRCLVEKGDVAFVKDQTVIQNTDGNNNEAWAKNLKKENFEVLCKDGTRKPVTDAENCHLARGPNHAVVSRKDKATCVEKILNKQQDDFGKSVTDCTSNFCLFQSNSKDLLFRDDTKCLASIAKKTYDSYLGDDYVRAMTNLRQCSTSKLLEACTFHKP
UniProt P24627, residues 20-708: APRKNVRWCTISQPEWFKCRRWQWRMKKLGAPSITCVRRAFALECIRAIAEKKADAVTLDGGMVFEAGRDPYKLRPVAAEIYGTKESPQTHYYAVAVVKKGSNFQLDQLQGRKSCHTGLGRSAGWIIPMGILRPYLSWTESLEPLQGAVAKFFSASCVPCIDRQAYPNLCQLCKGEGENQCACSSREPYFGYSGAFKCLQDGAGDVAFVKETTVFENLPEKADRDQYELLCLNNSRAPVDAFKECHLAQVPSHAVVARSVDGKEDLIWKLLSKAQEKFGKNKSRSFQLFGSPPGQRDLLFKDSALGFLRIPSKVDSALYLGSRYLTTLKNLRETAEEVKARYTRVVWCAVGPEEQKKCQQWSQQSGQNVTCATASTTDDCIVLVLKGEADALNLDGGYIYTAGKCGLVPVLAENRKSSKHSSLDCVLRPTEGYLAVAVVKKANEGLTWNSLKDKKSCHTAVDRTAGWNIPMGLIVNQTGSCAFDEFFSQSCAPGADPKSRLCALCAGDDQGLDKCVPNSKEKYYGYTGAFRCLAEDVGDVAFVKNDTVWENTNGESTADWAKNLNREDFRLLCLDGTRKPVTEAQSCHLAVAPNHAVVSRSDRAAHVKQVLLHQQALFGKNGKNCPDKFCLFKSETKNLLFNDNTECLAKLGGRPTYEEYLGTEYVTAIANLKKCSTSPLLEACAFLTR
UniProt P11974: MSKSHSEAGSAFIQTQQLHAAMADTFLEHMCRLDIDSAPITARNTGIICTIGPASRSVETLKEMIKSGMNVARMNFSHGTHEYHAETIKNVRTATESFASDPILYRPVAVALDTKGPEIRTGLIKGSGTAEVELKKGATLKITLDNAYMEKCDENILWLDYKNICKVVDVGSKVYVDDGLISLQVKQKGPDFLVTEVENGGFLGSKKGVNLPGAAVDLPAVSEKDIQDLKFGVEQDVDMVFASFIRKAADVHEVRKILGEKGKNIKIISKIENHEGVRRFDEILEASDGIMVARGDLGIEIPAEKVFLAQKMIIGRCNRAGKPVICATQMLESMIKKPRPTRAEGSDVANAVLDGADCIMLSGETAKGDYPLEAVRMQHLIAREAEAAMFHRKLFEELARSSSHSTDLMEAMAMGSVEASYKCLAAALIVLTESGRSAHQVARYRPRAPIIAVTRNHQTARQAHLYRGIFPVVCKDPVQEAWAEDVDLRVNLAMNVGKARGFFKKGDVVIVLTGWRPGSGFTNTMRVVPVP
UniProt P02789, residues 20-705: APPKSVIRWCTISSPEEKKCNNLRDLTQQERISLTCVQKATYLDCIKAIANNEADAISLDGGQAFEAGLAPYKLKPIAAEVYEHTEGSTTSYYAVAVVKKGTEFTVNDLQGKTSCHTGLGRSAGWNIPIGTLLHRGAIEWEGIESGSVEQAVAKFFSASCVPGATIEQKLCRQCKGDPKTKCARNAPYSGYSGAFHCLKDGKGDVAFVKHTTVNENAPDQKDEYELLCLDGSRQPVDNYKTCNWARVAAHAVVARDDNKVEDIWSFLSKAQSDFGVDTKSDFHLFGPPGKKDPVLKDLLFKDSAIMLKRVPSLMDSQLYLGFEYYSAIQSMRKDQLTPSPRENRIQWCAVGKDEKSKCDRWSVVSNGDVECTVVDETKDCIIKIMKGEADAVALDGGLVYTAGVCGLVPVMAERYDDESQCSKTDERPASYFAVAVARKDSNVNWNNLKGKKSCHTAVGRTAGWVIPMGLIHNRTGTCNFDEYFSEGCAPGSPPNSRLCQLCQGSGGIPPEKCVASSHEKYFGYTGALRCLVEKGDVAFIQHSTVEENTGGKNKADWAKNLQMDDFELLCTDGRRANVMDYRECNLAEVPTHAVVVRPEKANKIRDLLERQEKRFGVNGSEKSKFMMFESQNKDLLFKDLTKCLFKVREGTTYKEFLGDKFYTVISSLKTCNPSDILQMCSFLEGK
UniProt P02769, residues 25-607: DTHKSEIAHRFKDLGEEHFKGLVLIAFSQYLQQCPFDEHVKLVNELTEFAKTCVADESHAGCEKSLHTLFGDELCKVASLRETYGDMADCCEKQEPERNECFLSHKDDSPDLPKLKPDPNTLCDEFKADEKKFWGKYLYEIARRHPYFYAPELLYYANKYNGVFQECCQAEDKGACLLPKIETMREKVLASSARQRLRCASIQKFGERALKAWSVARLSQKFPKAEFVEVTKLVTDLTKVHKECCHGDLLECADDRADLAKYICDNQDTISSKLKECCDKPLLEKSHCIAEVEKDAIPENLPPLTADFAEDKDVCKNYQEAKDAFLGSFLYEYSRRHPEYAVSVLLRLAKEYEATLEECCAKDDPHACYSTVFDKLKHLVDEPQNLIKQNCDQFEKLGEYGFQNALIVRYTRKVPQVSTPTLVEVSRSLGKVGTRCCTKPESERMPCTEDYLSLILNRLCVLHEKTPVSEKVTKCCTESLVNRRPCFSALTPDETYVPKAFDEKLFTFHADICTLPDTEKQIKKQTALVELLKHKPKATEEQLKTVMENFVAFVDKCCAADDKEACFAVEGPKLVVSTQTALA
UniProt P00563: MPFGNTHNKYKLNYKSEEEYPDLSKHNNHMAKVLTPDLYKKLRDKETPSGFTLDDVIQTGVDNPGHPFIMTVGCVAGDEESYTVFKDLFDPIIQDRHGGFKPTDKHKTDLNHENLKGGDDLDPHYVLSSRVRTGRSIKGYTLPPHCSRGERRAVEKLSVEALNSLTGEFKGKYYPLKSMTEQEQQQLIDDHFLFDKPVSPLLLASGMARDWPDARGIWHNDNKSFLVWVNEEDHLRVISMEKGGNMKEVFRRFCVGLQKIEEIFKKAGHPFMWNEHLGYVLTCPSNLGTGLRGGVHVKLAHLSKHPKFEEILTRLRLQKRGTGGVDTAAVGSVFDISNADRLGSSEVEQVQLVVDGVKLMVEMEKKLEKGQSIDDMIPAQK

Tests used:
Assay in all cases: condition: 0.25 mg/mL per protein, corresponding to approximately 3–6 μM; cross-linking; mixture of eight model proteins in solution, 2 mg/mL total (0.25 mg/mL per protein), citrate-phosphate buffer, eight pH conditions (pH 4.0-7.5), 1 mM DSS (d0/d12) for 30 min at 37 °C; Lys-C/trypsin digest, LC-MS/MS, xQuest (score ≥ 25); both purified
[1] = target: bovine serotransferrin (bovine) (UniProt Q29443)
[2] = target: bovine lactotransferrin (bovine) (UniProt P24627)
[3] = target: rabbit pyruvate kinase (rabbit) (UniProt P11974)
[4] = target: chicken ovotransferrin (chicken) (UniProt P02789)
[5] = target: T1, rabbit fructose-bisphosphate aldolase A (rabbit) (UniProt P00883)
T1 sequence: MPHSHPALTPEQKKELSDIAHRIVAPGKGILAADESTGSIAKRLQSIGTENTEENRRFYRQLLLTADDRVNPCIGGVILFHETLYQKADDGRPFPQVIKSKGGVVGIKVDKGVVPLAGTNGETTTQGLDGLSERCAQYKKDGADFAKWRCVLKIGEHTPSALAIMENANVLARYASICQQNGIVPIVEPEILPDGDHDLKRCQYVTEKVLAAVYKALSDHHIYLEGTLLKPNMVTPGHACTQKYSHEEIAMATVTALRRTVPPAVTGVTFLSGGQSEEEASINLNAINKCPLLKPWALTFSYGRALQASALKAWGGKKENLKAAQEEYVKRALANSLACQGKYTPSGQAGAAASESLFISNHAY

[6] = target: bovine serum albumin (bovine) (UniProt P02769)

Measured: binding

chicken ovotransferrin (from UniProt P02789 20-705)
no binding: [1] | [2] | [3]

bovine serum albumin (from UniProt P02769 25-607)
no binding: [4] | [1] | [2] | [3]

bovine lactotransferrin (from UniProt P24627 20-708)
no binding: [1]

rabbit pyruvate kinase (from UniProt P11974 1-531) (enzyme)
no binding: [1] | [2]

rabbit creatine kinase M-type (from UniProt P00563 1-381) (enzyme)
no binding: [4] | [5] | [6] | [1] | [2] | [3]
